Here are results for 4 molecules from paper PMC5578694.

Sequences of proteins named here, by UniProt entry; tags and fusion partners are left off.
UniProt P38111: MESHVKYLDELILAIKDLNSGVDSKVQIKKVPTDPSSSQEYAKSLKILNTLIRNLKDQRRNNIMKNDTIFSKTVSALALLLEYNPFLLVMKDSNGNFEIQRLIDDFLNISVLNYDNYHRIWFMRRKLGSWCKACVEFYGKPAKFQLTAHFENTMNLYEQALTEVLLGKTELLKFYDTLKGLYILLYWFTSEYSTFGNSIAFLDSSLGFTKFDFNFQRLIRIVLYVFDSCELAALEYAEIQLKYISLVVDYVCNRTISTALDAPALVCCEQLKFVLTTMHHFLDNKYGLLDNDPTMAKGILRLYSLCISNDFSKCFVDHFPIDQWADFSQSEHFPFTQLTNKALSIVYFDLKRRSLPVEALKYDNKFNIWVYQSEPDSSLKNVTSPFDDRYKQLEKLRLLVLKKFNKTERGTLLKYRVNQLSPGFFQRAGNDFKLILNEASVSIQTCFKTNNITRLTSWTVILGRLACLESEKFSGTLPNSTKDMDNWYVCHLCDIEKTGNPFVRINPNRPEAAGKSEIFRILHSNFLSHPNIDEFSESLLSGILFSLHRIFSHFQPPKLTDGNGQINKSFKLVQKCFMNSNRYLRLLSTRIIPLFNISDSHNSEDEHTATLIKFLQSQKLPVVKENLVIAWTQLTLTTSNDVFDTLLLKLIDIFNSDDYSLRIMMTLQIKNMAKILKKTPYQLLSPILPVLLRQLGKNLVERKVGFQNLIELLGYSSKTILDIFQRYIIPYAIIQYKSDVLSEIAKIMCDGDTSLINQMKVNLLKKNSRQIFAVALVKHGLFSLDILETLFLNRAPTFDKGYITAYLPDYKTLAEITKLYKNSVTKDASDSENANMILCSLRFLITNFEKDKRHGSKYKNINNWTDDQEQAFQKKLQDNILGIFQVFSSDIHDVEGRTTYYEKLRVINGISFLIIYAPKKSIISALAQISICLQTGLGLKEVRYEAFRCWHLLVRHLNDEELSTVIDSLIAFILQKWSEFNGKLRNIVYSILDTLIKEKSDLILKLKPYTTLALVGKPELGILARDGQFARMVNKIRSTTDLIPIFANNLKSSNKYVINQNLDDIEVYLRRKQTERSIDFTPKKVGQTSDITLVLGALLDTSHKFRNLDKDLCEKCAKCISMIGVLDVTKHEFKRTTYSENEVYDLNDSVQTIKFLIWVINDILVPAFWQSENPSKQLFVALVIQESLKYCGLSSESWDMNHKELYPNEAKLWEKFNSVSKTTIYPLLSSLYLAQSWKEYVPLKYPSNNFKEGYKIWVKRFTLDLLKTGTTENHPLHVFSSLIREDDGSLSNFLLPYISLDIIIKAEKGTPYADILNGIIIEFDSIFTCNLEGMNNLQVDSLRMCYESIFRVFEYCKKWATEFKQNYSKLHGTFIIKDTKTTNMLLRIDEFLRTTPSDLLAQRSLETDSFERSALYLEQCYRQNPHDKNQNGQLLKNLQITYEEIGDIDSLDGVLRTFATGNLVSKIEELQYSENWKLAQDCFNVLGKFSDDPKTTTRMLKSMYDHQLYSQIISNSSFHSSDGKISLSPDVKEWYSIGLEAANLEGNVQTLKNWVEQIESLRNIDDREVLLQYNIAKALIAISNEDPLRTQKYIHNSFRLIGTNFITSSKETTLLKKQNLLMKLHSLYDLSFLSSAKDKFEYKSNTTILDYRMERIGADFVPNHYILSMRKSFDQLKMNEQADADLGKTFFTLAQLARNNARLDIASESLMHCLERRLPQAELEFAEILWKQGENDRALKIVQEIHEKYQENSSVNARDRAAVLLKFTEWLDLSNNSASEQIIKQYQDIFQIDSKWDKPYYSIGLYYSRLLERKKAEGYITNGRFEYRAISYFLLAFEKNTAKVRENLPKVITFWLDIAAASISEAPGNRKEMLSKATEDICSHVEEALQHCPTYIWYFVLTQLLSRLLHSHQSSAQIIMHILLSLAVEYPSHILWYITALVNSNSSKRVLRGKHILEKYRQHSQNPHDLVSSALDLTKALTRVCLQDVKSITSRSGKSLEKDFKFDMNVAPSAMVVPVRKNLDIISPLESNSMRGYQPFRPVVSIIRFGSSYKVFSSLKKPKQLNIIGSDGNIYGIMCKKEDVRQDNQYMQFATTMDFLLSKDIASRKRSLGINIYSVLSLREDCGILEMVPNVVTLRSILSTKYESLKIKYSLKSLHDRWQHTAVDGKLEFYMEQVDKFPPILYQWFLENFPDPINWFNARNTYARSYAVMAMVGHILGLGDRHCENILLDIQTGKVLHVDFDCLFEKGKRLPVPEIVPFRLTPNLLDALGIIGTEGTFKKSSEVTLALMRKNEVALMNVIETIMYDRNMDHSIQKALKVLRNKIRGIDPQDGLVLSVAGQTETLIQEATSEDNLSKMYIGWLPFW
UniProt P38110: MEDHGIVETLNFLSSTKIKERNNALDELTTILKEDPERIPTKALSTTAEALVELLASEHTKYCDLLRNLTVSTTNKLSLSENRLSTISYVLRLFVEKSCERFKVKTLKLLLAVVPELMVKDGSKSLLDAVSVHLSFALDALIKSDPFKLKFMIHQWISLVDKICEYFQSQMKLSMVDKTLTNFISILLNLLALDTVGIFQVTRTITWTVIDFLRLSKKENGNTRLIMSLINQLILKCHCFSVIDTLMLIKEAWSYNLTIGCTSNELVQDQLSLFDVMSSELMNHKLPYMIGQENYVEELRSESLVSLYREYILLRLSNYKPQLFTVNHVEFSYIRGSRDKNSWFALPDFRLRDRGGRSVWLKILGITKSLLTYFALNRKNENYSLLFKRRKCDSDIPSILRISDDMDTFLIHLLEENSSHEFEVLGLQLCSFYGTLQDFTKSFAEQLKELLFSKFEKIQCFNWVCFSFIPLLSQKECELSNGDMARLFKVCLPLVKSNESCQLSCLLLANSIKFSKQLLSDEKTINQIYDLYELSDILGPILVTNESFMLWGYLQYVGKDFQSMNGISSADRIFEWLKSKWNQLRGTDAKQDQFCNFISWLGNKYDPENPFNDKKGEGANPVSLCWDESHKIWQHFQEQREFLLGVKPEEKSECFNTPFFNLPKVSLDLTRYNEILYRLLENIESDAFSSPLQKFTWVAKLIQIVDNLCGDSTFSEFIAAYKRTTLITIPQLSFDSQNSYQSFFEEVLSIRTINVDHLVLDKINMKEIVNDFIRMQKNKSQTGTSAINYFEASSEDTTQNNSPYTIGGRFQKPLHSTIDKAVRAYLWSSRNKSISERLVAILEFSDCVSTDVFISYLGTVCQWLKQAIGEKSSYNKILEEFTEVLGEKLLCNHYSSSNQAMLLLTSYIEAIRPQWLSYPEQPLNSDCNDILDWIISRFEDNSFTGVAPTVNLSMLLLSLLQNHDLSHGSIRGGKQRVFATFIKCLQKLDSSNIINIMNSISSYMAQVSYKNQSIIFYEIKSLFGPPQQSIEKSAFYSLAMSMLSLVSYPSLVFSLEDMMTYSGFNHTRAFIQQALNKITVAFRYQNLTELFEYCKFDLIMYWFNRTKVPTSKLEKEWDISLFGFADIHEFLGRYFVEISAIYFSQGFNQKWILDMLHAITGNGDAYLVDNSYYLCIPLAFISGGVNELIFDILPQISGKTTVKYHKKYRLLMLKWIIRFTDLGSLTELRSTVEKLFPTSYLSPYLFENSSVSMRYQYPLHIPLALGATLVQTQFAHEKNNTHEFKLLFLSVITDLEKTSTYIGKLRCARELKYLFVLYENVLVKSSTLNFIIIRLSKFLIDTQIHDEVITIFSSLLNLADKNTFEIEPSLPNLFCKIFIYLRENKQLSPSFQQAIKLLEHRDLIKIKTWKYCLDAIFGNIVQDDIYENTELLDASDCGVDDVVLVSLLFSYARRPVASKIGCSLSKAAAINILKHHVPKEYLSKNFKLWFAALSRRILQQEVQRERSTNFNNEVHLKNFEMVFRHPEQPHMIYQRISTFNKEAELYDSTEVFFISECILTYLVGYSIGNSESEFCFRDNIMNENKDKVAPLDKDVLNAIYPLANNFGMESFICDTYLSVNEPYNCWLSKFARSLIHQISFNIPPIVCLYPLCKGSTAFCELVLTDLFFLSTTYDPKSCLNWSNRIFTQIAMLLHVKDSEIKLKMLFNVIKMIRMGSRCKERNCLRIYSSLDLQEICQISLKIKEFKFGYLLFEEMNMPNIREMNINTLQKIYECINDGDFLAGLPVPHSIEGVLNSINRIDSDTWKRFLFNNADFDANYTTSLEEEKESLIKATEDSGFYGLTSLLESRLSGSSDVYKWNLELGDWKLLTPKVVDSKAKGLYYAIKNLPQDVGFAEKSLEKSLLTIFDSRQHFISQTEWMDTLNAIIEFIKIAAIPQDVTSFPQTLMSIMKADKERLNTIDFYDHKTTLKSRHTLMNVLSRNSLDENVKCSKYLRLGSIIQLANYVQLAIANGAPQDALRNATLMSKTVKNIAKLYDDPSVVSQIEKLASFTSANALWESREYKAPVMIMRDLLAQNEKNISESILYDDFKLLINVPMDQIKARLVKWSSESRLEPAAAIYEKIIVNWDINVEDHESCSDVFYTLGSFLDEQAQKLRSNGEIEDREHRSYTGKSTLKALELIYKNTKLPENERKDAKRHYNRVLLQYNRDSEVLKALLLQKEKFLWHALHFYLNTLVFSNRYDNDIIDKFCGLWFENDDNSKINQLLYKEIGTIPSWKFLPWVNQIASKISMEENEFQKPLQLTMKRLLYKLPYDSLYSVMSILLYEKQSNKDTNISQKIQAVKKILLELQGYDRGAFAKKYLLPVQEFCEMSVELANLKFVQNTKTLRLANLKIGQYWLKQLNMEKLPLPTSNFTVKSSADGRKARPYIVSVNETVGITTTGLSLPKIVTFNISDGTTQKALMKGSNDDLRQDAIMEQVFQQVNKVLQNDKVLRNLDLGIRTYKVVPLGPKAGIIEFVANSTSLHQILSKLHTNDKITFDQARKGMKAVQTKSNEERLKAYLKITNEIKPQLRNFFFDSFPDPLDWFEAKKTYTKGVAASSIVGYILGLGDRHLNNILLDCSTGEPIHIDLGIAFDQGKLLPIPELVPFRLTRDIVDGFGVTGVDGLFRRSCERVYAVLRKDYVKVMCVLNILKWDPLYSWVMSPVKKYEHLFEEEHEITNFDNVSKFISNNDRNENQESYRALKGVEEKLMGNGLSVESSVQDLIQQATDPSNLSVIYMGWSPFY
UniProt Q03940: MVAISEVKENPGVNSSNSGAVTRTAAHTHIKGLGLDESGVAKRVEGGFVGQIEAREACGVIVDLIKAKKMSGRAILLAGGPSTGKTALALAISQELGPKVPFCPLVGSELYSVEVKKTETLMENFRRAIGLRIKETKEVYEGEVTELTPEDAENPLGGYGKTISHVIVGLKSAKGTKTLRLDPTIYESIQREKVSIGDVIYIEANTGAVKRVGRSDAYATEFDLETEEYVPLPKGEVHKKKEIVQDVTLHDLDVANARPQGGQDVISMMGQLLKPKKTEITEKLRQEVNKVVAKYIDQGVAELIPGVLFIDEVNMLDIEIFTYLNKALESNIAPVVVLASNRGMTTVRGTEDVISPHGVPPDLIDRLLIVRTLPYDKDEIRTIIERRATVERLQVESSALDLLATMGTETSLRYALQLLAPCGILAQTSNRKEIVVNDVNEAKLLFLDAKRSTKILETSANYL

What all share (experiment): co-IP; yeast cell extracts immunoprecipitated with anti-HA antibodies; extracts and immunoprecipitates blotted with anti-HA, anti-myc or anti-FLAG; wild-type and pih1Δ cells (Fig 3B); asa1-aid cells with or without IAA and Dox for 6 hr (Fig 5A) or 2 hr (Fig 5E); tel2-aid cells with or without IAA and Dox (Fig 5C); rvb2-aid cells without depletion (Fig 5B); cells at 30°C, for Fig 5D also transferred to 42°C for 1 hr

In one test the target is T1, Asa1-HA (S. cerevisiae) (UniProt Q06822).
T1 sequence: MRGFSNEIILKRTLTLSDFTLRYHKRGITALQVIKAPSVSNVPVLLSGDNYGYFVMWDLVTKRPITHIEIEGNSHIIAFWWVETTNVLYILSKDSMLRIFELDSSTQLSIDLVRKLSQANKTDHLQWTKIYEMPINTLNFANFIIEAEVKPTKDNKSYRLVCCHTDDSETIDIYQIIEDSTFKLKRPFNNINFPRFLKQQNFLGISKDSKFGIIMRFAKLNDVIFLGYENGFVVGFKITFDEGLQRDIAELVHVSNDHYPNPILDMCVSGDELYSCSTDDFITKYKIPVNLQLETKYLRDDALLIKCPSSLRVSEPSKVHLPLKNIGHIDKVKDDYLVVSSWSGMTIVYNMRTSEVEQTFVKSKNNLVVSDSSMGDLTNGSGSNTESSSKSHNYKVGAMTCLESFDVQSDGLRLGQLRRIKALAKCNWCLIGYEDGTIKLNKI

Another test concerns the target T2, Tel2-HA (S. cerevisiae) (UniProt P53038).
T2 sequence: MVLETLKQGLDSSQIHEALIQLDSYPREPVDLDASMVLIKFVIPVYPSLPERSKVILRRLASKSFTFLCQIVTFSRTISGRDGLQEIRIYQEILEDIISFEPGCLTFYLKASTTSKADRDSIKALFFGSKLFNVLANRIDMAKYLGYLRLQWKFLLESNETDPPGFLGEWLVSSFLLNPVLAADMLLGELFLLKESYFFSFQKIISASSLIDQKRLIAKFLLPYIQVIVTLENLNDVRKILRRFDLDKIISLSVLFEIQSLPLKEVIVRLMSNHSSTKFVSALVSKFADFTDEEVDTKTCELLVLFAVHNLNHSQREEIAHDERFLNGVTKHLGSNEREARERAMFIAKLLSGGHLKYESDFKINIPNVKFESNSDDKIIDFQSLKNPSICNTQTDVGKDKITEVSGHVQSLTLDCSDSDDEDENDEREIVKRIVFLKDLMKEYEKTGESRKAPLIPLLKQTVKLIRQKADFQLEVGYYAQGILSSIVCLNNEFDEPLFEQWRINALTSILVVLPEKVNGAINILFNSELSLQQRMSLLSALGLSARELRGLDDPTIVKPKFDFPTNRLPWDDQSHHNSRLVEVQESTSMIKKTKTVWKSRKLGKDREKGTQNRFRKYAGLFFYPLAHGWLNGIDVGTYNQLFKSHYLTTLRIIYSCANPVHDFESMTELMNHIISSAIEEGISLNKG

A further test concerns the target Mec1-HA (S. cerevisiae) (UniProt P38111).
The target in a further test is Tel1-HA (S. cerevisiae) (UniProt P38110).

These are yes or no findings as the source states them, for the method shown. Binding seen in cells or lysates may run through a third protein. Some entries that bind do so weakly or less than the wild type. Sequences can lack the tags named with a protein.

Regarding Rvb1-myc (from UniProt Q03940 1-463), the binding result with Asa1-HA (S. cerevisiae) was “binds”.

B1: Pih1-myc (protein, UniProt P38768 1-344)
chain: MADFLLRPIKQRHRNEDKYVSVDAADGSVSKIEPIADFVIKTKLLSANGPEKLQDGRKVFINVCHSPLVPKPEVDFNARIVFPLIIQNEWEIPIITSCYRMDHDKKGQECYVWDCCINSDCSRWICDDIQLREILVEWCLESCEIRDSVVLCRDRIAFPKMKKKGAELPALEVLNDELHQDYKAKMHKIIEEEAGDPMSILRGRNDDGDDNNDPDDGTLPPLFPIENKISGAKIEEIDKNEIAHRNLKQAPAPAPAPHEQQEDVPEYEVKMKRFKGAAYKLRILIENKAPNSKPDRFSPSYNFAENILYINGKLSIPLPRDIVVNAADIKIFHIRKERTLYIYI
In the case of B1, in the test with Tel2-HA (S. cerevisiae), the binding result is “binds”.

B2: Tel2-FLAG (protein, UniProt P53038 1-688)
chain: T2 sequence
With B2, the binding entry with Mec1-HA (S. cerevisiae) and with Tel1-HA (S. cerevisiae) was “binds” throughout.

B3: Asa1-myc (protein, UniProt Q06822 1-443)
chain: T1 sequence
With B3, the binding result with Mec1-HA (S. cerevisiae) and with Tel1-HA (S. cerevisiae) was “binds” each time.
